The target in the experiment is endogenous IL-7R (CD127) (human) (UniProt P16871). The experiment in a line: Flow cytometry of TILs squeeze processed with mbIL-7 mRNA; binding inferred from loss of anti-IL-7R staining. Background: Flow cytometry measures light scatter and fluorescence of single cells or particles in a stream.

Chains of the proteins cited; added tags and fusions are not shown. Residues count along the entry.
UniProt P16871, residues 21-459: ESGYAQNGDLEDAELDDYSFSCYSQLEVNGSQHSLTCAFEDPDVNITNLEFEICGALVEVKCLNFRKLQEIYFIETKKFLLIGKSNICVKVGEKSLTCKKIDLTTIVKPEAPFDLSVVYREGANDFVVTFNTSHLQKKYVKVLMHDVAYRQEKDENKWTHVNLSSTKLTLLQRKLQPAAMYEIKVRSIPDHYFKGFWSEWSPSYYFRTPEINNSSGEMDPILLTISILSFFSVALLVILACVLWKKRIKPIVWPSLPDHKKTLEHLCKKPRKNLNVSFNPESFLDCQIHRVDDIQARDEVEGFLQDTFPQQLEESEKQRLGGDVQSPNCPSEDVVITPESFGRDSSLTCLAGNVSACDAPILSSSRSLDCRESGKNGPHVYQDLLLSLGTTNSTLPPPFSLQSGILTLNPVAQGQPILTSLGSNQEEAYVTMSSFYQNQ

Results are given in words; binding and its absence hold for the method and conditions named. Some results given as binding are weak or reduced against the parent protein; the word gives no strength.

B1: membrane-bound IL-7 (ligand)
chain: MMVDGDNSHVEMKLAVDEEENADNNTKANVTKPKRCSGSICYGTIAVIVFFLIGFMIGYLGYCKSSDGPGETGGGGGSGGGGSGGGGSDCDIEGKDGKQYESVLMVSIDQLLDSMKEIGSNCLNNEFNFFKRHICDANKEGMFLFRAARKLRQFLKMNSTGDFDLHLLKVSEGTTILLNCTGQVKGRKPAALGEAQPTKSLEENKSLKEQKKLNDLCFLKRLLQEIKTCWNKILMGTKEH
Turning to B1, the binding entry is “binds”.

Values taken from patent US20250327027A1, “METHODS TO GENERATE ENHANCED TUMOR INFILTRATING LYMPHOCYTES THROUGH MICROFLUIDIC DELIVERY” (STEMCELL TECHNOLOGIES CANADA INC., priority 2021, published 2025).
